Our source for the inhibition values is publication PMC7489219 (Molecular Brain, 2020).

Each structure is given as a SMILES string. Where a name gives a salt, the structure may show the parent alone.

The test has as its system T1, primary mouse cortical neurons.
T1 construct: primary cortical neurons, DIV 10
Kind of test: cells. The following applies: Cortical neurone, 20 h, read-out: % inhibition, inhibition of NMDA-induced cell death (protection score), 30 min pre-treatment. Also noted: Protection from NMDA-induced (30 uM, 10 min) neuronal death; Hoechst nuclear morphology by automated microscopy. The protocol:
On DIV 10, compounds were applied to the cells reaching an end concentration of 10 μM. Cells were incubated for 30 min at 37 °C, 5% CO2 before adding NMDA (30 μM). Cells were incubated for another 10 min in the incubator, then washed twice with defined minimal medium containing 10 μM of the respective compound and incubated for an additional 20 h before readout. Untreated (no NMDA) and NMDA-only stimulated wells were treated with 0.1% DMSO. […] After 15 min of incubation at room temperature, cells were washed twice with phosphate buffered saline. […] Dead neurons were identified by amorphous or shrunken nuclei using CellProfiler and CellProfiler Analyst software. For all cell death analyses the experimental unit (N) is defined as an independent experiment using an independent neuronal preparation. For each independent experiment, data from 3 replicate wells (i.e., from 36 images), representing an average of 3000 cells was analyzed per condition. The survival rate S was calculated by dividing the number of living cells by the total number of cells. The survival rate was then used to calculate the protection score according to Scompound−Svehicle/Suntreated−Svehicle×100=%protection , where ‘compound’ refers to compound + NMDA treatment, ‘vehicle’ refers to vehicle + NMDA treatment, and ‘untreated’ refers to DMSO control. […]

The term inhibition denotes how much of the control response was suppressed. With `CN1CCC[C@@H]1CCO[C@](C)(c1ccccc1)c1ccc(Cl)cc1` [Clemastine fumarate], the inhibition at 10 µM was found to be 1.09%.
